The nature of data set [1]: folding stability dG unfold from chymotrypsin proteolysis; higher = more stable. The procedure: (§1)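 Folding stability of de novo designed mini-proteins (<80 aa, no Cys; designed by TrROS, TrMRF, ProteinMPNN and the joint model) was measured by cDNA display proteolysis with trypsin and chymotrypsin. Each protease was used at 11 concentrations in a threefold dilution series plus a no-protease condition. K50 was inferred by Bayesian fitting of sequencing counts, and dG unfold was derived against a sequence-predicted unfolded-state K50 (Tsuboyama et al. method). Sequences shown include variable-length N-terminal GS-type padding (SAGGSAGG...) inside a display construct carrying a PA tag. Rows were kept only if the AF2 dimer inter-PAE was >15, to exclude likely homo-oligomers.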

The nature of data set [2]: folding stability dG unfold (combined trypsin and chymotrypsin); higher = more stable. The procedure:
as §1

± gives the half width of the 95% confidence interval. The two proteases of the assay disagree for many of these sequences. A value given as a limit tells only on which side of the number the result lay.

On to “SAGAHTVSVHYVEPGSKKLSSVETSEITLEPGEELPLDEVAARFPSENYEVTAQEEPDAITITIYVYRGSAG [r5_269_JUSTAS]”, for which the “folding stability dG unfold” value in data set [1] is 0.522 ± 0.27 kcal/mol; in data set [2], 0.547 ± 0.087 kcal/mol.

In the case of “SAGGSAGGSPIMVRVERRDKDGKKKPVPTIPIPINNDDPEEALEWANEIAKKAGARDVRVEIWSAGGSAGGS [r12_569_TrROS]”, the “folding stability dG unfold” value in data set [2] is less than -1 kcal/mol. Turning to “SAGMFVKIKFKTADKTVEELVKKIKEETGIPENAKITVIAEKSEDEGFVVIIEFDEEEVRDKIKEIVGSAGG [r19_215_TrMRF]”, in data set [1], the “folding stability dG unfold” value was 1.35 ± 0.062 kcal/mol. In the case of “SAGGSAGGSAGGSGTEELLLEVPVLRRSDGGWEPVETRELPVSVPVNDAPAARELAEAASAGGSAGGSAGGS [r4_153_TrMRF]”, the “folding stability dG unfold” value in data set [1] amounted to 1.14 ± 0.024 kcal/mol; in data set [2], 0.592 ± 0.11 kcal/mol. For “SVVIPIKTDDPAALAEALAAVRAALEAARAAGLEVVPLPILLDDGKEIEFPVDPAAAEDAVLARLRAALESA [r9_127_JUSTAS]”, the “folding stability dG unfold” value was 2.61 ± 0.034 kcal/mol in data set [1] and 2.19 ± 0.11 kcal/mol in data set [2].

In the case of “SAGGSAGGSAAKVEIEPRRLPDGRLLVVVRVYDPSTGRVVDRPFLVDPDVITPEDLLALAASAGGSAGGSAG [r3_127_TrMRF]”, the figures for the “folding stability dG unfold” value in data set [1] and in data set [2] were 2.46 ± 0.041 kcal/mol and 1.94 ± 0.1 kcal/mol, respectively. On the same counts, the results for “SAGSPATLRAQAEEEARALAAELGAEVTVDVTVEPVPGEYVVRTTATLTFPGGEVRTLPRTTRVPRSLVSAG [r5_609_JUSTAS]” are 1.09 ± 0.08 kcal/mol and 0.953 ± 0.08 kcal/mol. With “SAGGSAGGSAGGPTFEEIKKRNPTDGEIRVISEDGEDLTVEVTFPDGAKARATFPKDALSAGGSAGGSAGGS [r10_612_TrMRF]”, the “folding stability dG unfold” value in data set [1] stood at 1.05 ± 0.15 kcal/mol; in data set [2] it was 0.558 ± 0.16 kcal/mol. For “SAGGITIRGMPWEWAEEIAKTLAQEGYRLKDVEVEEDPPDGYYSVTVQQRDPETGKPKKPVTISIPPSAGGS [r16_750_TrROS]”, in data set [1], the “folding stability dG unfold” value amounted to 0.0769 ± 0.44 kcal/mol. For the sequence “SAGGSAGGSAMTVTVTVTRELPGGKWLGTVTLPGANTPVLVEVPGPLEEAEARLRELAEAASAGGSAGGSAG [r3_104_JUSTAS]”, the “folding stability dG unfold” value stood at 1.37 ± 0.023 kcal/mol in data set [1] and 0.819 ± 0.057 kcal/mol in data set [2]. Taken in the same sequence, the figures for “SAMAPVRLFRALGLPVRRIDLRRAPDGDLWISAEIEGYVLEPADADGRPRRRPVRLRITMPVRDALDGLSAG [r14_16_TrMRF]” were 2.78 ± 0.097 kcal/mol and 2.08 ± 0.11 kcal/mol. On the same counts, the results for “SGLPEALAKAREFAEAVRRAHADHEVRIEAEAELTPDGRLRIRARVEVRPLPPAPPRPARGPDGPLVTLGSA [r9_82_TrMRF]” are 1.95 ± 0.079 kcal/mol and 1.51 ± 0.069 kcal/mol. On the same counts, the results for “SAGGMKPRVITFEVTADDPADKEKARAEALARAEALAEADPDRAILGTTATVEETDASVTVTLPVTVSSAGG [r13_305_JUSTAS]” are 1.09 ± 0.12 kcal/mol and 0.485 ± 0.13 kcal/mol.

For the sequence “SAGGSAGGSAGGPTRRLELLVFDPETNRLVRRRLELRDGELRLEVEVVRLPPPPPPPARSAGGSAGGSAGGS [r10_354_TrROS_Hall]”, the “folding stability dG unfold” value in data set [1] worked out at 2.68 ± 0.031 kcal/mol; in data set [2], 1.93 ± 0.097 kcal/mol. For “SAGGSAGGMPESAPPVPLPTSTVPLSEARAAGIEVPPGSERVIRTPSGVTYRISSATGTVTVVGSAGGSAGG [r6_275_JUSTAS]”, the “folding stability dG unfold” value in data set [2] was less than -1 kcal/mol.

Turning to “SAGGSAGGSAGGGFTLIPPEEFEVLRKKLGYTLEGTEELPGPSKAVRLKDPNGKTIVVDSAGGSAGGSAGGS [r10_210_JUSTAS]”, the “folding stability dG unfold” value came to 1.15 ± 0.18 kcal/mol in data set [1] and 0.503 ± 0.2 kcal/mol in data set [2]. In the case of “SAGGSAGGSAMPKTTVYTIPYESDEEAEARIEEIKAEARARNPEAKVTVTPAGESVNVTIVGSAGGSAGGSA [r18_469_JUSTAS]”, the “folding stability dG unfold” value in data set [1] was -0.116 ± 0.19 kcal/mol.

“SAGGSAGGPLVLRIETPEDKVLVLVLPEEAEKLPPKELAEIAAKEFAALPGVKEVKVEIAPLPLSAGGSAGG [r6_710_TrMRF]”: in data set [1], the “folding stability dG unfold” value came out at 1.11 ± 0.15 kcal/mol. For the sequence “SAGGSAMKVKSIHWQRHGDRPMVRIKIQNPDGKKRERNIPMDDPEKFKKEAKELAKEGKIKEIEPYSAGGSA [r15_575_TrROS]”, the “folding stability dG unfold” value in data set [2] is less than -1 kcal/mol.

Regarding “SAGGSAGGSAGGMTVTELPNDTILVETDSPEEAEAIKAEFEKKGLPVEVFPENVIRVPKSAGGSAGGSAGGS [r10_1027_JUSTAS]”, the “folding stability dG unfold” value in data set [1] stood at 1.24 ± 0.051 kcal/mol; in data set [2], 0.645 ± 0.1 kcal/mol.

For “SAGGSAGGSAGGMNPIVIKKTYPVKSGSFTVTLPEGVTPVSFEKDPNSDTITIEVLVEPSAGGSAGGSAGGS [r10_906_JUSTAS]”, in data set [1], the “folding stability dG unfold” value is -0.713 ± 0.37 kcal/mol. With “SAGGDKLGKPLGGKPVTFDISKEELSYNPSNGTWSKSVVTTPRTVFYPPDAEPDPAVFASGAGSVTLASAGG [r13_753_JUSTAS]”, the “folding stability dG unfold” value was 0.281 ± 0.091 kcal/mol in data set [1] and -0.184 ± 0.077 kcal/mol in data set [2]. For the sequence “SAGGSAGGSALKPNETATIRILTTAPDGKPYVLVVEVRVLPDGGVEVLGYKLVTLSDLEKNSAGGSAGGSAG [r3_212_TrMRF]”, the “folding stability dG unfold” value in data set [1] was 3.74 ± 0.082 kcal/mol.

For “SAGGASPDEVWTATLLSFDPGSGGSTYQLQFTDPLAGTPTTLTASGDDPAAVQAALDALAAAGPVLLESAGG [r13_286_JUSTAS]”, the results for the “folding stability dG unfold” value in data set [1] and in data set [2] were 1.1 ± 0.12 kcal/mol and 0.345 ± 0.11 kcal/mol, respectively. In the case of “SAGGVGFGIEPLPDGTYRLTVVVTSAGEGELTTSSLELTVPVAPLAPPAPPVPVRPGWRDGVPLPGTAASAG [r5_169_TrMRF]”, the figures for the “folding stability dG unfold” value in data set [1] and in data set [2] were 2.08 ± 0.041 kcal/mol and 1.24 ± 0.14 kcal/mol, respectively. On the same counts, the results for “SAGGSAGGSAGVKVERDPNGSTRTITTTTTTTLPTEDGTLVTTETVTTTTVPLSPDVPLLSAGGSAGGSAGG [r17_480_JUSTAS]” are 1.56 ± 0.076 kcal/mol and 1.02 ± 0.12 kcal/mol. Consider “SAGGSMTARLVELVRPEDSDELVALVRGENGETYTVPASEIEEALSNGKELEVPLPNGEEVTLELSSAGGSA [r2_301_TrMRF]”, for which the “folding stability dG unfold” value in data set [1] is 1.18 ± 0.051 kcal/mol; in data set [2], 0.536 ± 0.12 kcal/mol. Taken in the same sequence, the figures for “SAGGTYTVEVTGSATFTLPDGSEVTVTGTATFTNDLAPDEEAVLADGSLIPASASAEELAQAALAAASAGGS [r16_440_TrMRF]” were 2.97 ± 0.058 kcal/mol and 2.32 ± 0.25 kcal/mol. On the same counts, the results for “SAGKKTIIIKIPPNMTVEELKKALKNLKPNEKVTITVNGKKYTITVKDGKIKITFPENVKNMILIIEVKSAG [r5_373_TrROS_Hall]” are 2.54 ± 0.057 kcal/mol and 2.4 ± 0.36 kcal/mol.

On to “SAGGSAGGSAVETVREDGTLARITLPETGEEFAVPPDLSDEEARARHPAVVITRAPVPAPPLSAGGSAGGSA [r18_53_JUSTAS]”, for which the “folding stability dG unfold” value in data set [1] amounted to 1.2 ± 0.016 kcal/mol; in data set [2] it was 0.666 ± 0.054 kcal/mol. On the same counts, the results for “SAGGSAGGSAGGETVTLTVKVKFTFTVPDPDGVEHPVEAEFPAEISLPRELATEELLEAASAGGSAGGSAGG [r7_777_TrMRF]” are 1.59 ± 0.093 kcal/mol and 0.916 ± 0.12 kcal/mol. For “SAGGSAIKIDPDYGTIEIYNPDNGKEIEIPIDGLPPGRKMDIEINNDKIEIKMPGGTRELPIDDIKSAGGSA [r15_864_TrROS]”, the “folding stability dG unfold” value in data set [1] was 0.655 ± 0.068 kcal/mol; in data set [2], 0.194 ± 0.26 kcal/mol. On the same counts, the results for “SAGGDVVEFDSLEDLEAALPVLRRGAELLLRLNLVFERPLPDGRPRRVPRLLFLRARLEDGELRIEPVSAGG [r13_835_TrMRF]” are 2.74 ± 0.094 kcal/mol and 1.78 ± 0.13 kcal/mol. Consider “SAGEATVEKLEDGYVVVFKDGSVAFLPAVPPAVPVVEIPFKDPEEGRRAVEELGADVLDIGDDSIVVAGSAG [r5_328_TrMRF]”, for which, in data set [1], the “folding stability dG unfold” value turned out to be 0.346 ± 0.033 kcal/mol. On to “SAGGSAGGSAGDLPPGKEIEIMMSTPEWADEFADNFPNAKIKIEPMPPKPKYDPETGKGYSAGGSAGGSAGG [r17_126_TrROS]”, for which the “folding stability dG unfold” value in data set [2] was less than -1 kcal/mol. Still for that read-out and setting: the result for “NWVVWAKLTNPEEGERKTYEVPVPPGEEPTEEEILDQAKDMLGRPKEDLRKNVEIEPYPENGWAEIEIRIRS [r1_285_TrROS]” reads less than -1 kcal/mol. Regarding “SAGGSADVVLVEVRPPVLDPEGRPLLTLVLRLPDGGSRTLVVELSDLAGALANLPPNVRVDEIRPLSAGGSA [r15_339_TrMRF]”, the “folding stability dG unfold” value in data set [1] was found to be 2.31 ± 0.035 kcal/mol. On the same count and under the same terms, for “SAGSAAIKALLEKHPKPEVIEVTRLPGSGTLVIKVDDEDHVVPTPPGGFTETLTVDENGNVLSVEPHPASAG [r5_329_JUSTAS]” the value was 1.65 ± 0.064 kcal/mol; for “SAGEPPEVVIEVRVERREDGTVRVTVRIRNRDGEEVLEVTVELRREDEEEARRRALEEARRLAEELAASAGG [r19_13_TrROS_Hall]”, 3.08 ± 0.32 kcal/mol.

For “SAGGSAGGSAGEIEIEFEPGEEFLDFIKNLPGPIESIEIEPIDPDKVRARLKLNIPEDLASAGGSAGGSAGG [r11_143_TrMRF]”, the “folding stability dG unfold” value in data set [2] is less than -1 kcal/mol.

On to “SAGGSAGGSAGVTDPNSSKPVPSSYVVVTVRGPEKESYYRVPPSEAAAFAAARGVEVILESAGGSAGGSAGG [r17_109_JUSTAS]”, for which the “folding stability dG unfold” value in data set [2] is less than -1 kcal/mol. Take “SAGSPVTLELRVTRPRADAATGAPATATETVTVTLPAAVVAAGLSPEEIARLLEAANPGATVELTAVASAGG [r19_110_JUSTAS]”: the “folding stability dG unfold” value in data set [1] worked out at 0.259 ± 0.14 kcal/mol. In the case of “SANKNFYIIQIKWEIDGPDGRTLSFMIIVPRDDPDEFLKEAKDFIAEEFGYPIKKIEVDIHRIPPEDFPSAG [r14_104_TrROS]”, the “folding stability dG unfold” value in data set [1] was determined as 3.16 ± 0.07 kcal/mol. For “SAGGSAGGSAGGFVGTLKDYPKILKAAKEVGLKVGKIDPKNNKIYVDPSNPEKLKKAIESSAGGSAGGSAGG [r7_285_TrMRF]”, the “folding stability dG unfold” value in data set [2] is less than -1 kcal/mol.

“SAGGSAGGSAGPIVLIKIKNKNGKEIEIEMSLEELKKKLPKELKNMKVEIVEVKEVKVEKSAGGSAGGSAGG [r11_353_TrROS_Hall]”: the “folding stability dG unfold” value in data set [1] amounted to 0.315 ± 0.14 kcal/mol. As for “SAGGSAGGSGMTVEERTSPDGTRVEVYLGPGSVVREESPEGVVTVRTLTDGRVEREEVVPVPASAGGSAGGS [r12_451_JUSTAS]”, in data set [2], the “folding stability dG unfold” value was less than -1 kcal/mol.

The record behind these values is the supplement of paper PMC12764529.
